This is one part of the list.

Amino acid sequences for entries named in this document (tags omitted). A change or cut given only in a name is not applied to a line headed by its entry.
UniProt Q5BVD1: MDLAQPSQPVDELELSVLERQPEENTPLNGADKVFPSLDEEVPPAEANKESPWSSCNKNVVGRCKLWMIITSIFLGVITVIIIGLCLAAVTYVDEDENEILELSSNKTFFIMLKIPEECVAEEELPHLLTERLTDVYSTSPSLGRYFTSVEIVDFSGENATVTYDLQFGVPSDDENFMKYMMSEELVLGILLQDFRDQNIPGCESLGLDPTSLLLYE
UniProt Q9UJK0: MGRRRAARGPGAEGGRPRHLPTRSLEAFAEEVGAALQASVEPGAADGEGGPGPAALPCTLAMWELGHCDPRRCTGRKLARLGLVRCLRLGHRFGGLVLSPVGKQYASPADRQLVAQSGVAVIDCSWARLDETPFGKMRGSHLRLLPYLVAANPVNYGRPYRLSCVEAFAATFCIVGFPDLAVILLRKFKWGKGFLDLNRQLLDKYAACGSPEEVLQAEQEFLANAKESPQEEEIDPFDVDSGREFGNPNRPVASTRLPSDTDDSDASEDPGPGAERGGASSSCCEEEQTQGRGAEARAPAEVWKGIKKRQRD
UniProt Q9UL33, whole entry, looked up: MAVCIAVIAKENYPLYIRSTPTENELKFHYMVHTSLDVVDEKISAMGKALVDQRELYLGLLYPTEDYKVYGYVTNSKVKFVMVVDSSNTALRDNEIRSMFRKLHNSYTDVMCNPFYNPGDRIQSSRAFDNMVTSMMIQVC
UniProt Q99614: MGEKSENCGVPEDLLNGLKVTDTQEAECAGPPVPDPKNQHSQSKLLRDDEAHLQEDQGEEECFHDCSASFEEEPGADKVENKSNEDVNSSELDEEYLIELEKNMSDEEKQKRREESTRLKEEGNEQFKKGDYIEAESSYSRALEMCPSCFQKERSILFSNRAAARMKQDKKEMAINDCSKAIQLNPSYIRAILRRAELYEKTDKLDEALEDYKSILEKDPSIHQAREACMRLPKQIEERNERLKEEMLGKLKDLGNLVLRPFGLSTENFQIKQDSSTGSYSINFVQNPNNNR
UniProt Q6PJ69: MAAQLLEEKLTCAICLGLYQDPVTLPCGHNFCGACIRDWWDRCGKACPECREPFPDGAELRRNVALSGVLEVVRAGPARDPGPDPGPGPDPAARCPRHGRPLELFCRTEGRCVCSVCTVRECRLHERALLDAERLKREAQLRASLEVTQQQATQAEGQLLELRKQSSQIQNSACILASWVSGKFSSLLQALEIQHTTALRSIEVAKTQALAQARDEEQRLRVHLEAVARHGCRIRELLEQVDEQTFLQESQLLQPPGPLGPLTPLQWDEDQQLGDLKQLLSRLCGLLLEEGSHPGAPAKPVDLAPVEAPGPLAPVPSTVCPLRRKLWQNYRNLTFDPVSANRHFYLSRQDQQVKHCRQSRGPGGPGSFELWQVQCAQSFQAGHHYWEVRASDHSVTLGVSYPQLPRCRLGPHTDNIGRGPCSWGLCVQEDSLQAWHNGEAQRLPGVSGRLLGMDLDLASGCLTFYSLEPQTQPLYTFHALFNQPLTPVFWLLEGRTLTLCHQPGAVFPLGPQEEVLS
UniProt Q14258, whole entry, looked up: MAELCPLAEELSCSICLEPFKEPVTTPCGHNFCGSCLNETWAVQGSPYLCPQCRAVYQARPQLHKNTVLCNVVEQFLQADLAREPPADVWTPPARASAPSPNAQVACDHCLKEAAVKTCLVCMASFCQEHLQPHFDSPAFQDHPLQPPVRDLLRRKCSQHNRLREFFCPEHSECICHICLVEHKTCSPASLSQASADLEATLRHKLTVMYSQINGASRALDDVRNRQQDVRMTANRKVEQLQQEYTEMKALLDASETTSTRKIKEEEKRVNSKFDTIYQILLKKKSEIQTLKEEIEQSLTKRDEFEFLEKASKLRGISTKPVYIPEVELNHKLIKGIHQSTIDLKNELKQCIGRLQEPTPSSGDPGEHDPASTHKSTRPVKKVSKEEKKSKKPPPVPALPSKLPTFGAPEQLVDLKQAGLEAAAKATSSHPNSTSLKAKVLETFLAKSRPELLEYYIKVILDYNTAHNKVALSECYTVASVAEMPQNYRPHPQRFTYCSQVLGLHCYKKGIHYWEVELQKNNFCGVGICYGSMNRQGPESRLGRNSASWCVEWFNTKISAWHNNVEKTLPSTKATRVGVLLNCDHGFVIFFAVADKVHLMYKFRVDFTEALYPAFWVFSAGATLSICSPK
UniProt Q6DKK2: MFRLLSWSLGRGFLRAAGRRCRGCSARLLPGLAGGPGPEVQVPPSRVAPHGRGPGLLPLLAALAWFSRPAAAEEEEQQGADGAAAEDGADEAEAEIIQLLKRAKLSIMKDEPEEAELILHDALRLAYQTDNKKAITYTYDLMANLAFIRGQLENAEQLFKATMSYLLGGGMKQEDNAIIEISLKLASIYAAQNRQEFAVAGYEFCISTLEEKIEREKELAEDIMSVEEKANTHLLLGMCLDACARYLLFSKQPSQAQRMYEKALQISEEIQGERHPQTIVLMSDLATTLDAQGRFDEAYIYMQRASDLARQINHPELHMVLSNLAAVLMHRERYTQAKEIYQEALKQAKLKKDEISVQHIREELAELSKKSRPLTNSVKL
UniProt Q9BQ61: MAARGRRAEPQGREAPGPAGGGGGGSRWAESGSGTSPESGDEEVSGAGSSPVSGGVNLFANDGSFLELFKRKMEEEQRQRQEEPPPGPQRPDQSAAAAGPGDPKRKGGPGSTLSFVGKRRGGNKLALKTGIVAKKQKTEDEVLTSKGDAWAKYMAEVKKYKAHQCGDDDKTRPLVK
UniProt Q7Z4G4: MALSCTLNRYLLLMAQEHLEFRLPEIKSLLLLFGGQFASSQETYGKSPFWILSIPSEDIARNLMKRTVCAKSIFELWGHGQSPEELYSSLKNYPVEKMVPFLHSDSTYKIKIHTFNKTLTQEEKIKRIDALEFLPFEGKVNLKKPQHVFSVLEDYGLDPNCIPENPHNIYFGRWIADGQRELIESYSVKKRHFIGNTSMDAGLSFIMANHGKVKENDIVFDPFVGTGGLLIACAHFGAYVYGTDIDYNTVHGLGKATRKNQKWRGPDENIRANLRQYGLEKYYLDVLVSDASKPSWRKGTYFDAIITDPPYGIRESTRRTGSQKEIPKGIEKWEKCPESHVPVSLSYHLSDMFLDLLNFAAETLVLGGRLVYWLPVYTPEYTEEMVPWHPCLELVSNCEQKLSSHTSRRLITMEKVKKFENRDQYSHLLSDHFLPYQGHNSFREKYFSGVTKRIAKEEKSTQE
UniProt Q6PID6, whole entry, looked up: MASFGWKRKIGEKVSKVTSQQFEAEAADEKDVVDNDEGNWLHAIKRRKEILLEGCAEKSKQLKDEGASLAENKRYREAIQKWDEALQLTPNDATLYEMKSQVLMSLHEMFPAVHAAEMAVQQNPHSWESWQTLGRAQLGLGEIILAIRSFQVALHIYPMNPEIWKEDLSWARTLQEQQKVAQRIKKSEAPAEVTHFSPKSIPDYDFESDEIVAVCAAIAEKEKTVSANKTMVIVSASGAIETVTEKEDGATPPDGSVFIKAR
UniProt Q9NXH9: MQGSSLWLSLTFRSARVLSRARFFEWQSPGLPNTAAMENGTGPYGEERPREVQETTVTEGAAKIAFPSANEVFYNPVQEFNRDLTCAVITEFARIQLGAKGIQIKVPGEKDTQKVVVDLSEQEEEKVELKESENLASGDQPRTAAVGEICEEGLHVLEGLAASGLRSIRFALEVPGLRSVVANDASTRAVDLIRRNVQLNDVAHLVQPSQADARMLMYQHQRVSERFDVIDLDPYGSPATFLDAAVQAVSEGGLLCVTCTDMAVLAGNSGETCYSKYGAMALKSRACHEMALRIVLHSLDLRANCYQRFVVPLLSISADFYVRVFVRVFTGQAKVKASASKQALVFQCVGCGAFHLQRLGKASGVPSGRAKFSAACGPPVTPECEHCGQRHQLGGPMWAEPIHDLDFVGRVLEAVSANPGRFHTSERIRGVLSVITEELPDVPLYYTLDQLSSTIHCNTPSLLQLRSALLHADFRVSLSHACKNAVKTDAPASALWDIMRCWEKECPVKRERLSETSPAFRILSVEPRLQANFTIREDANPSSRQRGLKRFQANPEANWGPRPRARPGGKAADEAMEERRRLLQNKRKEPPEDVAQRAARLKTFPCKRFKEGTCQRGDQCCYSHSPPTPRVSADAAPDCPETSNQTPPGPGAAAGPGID
UniProt Q8TEL6: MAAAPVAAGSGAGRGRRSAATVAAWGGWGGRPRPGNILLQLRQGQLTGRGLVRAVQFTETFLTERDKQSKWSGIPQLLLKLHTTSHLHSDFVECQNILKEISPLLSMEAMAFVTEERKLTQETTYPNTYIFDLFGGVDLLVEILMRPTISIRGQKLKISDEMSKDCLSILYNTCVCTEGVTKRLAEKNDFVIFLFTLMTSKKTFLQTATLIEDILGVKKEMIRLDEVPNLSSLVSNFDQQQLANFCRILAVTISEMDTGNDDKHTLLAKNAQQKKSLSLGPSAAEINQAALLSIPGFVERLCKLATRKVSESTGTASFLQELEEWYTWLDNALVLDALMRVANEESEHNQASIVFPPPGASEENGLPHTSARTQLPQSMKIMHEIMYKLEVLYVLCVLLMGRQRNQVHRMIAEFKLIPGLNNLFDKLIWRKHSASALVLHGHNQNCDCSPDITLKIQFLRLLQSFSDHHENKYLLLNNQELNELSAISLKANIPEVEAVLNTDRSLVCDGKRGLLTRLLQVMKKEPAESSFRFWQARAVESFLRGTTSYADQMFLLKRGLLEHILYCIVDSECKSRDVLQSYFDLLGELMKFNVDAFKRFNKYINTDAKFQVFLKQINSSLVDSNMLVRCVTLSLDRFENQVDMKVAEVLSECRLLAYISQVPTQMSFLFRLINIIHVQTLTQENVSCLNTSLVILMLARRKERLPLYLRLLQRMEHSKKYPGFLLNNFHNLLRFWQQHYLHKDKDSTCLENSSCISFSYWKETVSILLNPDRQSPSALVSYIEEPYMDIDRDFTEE
UniProt Q99816: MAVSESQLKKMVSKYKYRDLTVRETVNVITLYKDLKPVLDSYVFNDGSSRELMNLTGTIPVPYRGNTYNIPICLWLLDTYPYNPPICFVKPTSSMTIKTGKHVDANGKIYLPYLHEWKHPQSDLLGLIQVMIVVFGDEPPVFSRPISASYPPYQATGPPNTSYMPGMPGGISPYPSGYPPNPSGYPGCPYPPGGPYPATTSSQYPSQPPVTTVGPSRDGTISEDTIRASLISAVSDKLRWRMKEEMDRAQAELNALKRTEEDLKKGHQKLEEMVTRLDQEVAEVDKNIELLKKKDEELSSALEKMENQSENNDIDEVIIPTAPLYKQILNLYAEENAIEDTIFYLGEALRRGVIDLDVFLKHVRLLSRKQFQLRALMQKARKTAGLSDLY
UniProt Q8NG68: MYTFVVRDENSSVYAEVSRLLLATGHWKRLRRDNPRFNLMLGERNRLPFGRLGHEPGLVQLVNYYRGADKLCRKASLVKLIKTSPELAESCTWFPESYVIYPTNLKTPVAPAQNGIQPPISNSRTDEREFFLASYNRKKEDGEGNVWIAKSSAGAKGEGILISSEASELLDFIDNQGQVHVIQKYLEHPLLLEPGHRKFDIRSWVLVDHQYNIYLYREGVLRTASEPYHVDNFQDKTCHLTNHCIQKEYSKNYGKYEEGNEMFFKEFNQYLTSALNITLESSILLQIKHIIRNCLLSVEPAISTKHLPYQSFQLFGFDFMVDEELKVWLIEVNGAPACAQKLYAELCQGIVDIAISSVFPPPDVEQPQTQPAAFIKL
UniProt Q8N0Z6: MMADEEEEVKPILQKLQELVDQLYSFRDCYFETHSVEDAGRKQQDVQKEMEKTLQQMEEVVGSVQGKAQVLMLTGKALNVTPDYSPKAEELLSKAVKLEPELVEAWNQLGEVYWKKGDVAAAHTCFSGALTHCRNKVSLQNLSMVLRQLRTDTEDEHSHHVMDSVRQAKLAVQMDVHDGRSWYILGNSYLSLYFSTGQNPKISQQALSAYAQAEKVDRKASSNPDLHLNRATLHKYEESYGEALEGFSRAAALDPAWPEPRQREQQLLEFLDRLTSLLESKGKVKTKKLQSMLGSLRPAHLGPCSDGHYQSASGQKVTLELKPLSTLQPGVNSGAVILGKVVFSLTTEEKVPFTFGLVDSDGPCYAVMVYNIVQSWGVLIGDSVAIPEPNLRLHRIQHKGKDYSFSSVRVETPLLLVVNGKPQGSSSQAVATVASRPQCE
UniProt Q32P41: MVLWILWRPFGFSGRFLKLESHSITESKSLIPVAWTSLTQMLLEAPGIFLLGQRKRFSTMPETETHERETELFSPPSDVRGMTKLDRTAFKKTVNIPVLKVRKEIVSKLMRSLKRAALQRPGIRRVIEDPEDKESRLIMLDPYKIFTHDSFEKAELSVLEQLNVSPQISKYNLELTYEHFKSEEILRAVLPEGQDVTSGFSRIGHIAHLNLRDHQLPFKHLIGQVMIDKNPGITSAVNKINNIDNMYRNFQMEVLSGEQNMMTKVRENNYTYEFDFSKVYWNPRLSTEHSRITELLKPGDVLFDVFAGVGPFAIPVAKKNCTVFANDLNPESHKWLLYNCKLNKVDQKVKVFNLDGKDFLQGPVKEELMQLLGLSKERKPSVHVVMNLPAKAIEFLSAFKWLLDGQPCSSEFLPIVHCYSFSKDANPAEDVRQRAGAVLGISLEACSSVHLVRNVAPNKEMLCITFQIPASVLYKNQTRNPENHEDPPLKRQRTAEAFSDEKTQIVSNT

Compound in one test: CC(C)C1=C2N=C(C=C(N2N=C1)NCC3=CC=CC=C3)NCCCCCCN
Kind of test: log2 fold change, soluble protein after heating vs DMSO (PISA); higher = thermal stabilisation; K562 lysate, 10 uM; active = over 0.2 and 3.5 SD of the protein, either way, in both replicates (recomputed). The method, boiled down: (§1)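 Log-two fold change in thermal stability relative to solvent controls is reported from duplicates. For each sample, crude K562 extract from dounce-homogenised pellets in PBS pH 7.4 with 1 mM MgCl2, at 1 mg/mL protein, was treated with 10 μM compound for 30 min. Aliquots heated for 3 min across 48°C-58°C were pooled, brought to 0.5% NP-40 at 4°C and cleared at 21,000xg for 90 min. The supernatant was quantified by TMTpro 16plex LC-MS/MS with channel sums equalised.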
As to TTMP isoform 3 (UniProt Q5BVD1), the log2 fold change was inactive: -0.038.
Still for that read-out and setting: the figure for TSR3 (UniProt Q9UJK0) is inactive: -0.019.
Same read-out and setting: then TRAPPC2L (UniProt Q9UL33), with inactive: 0.005; and TTC1 (UniProt Q99614), with inactive: -0.001; and TRIM65 (UniProt Q6PJ69), with inactive: 0.005.
In the case of TRIM25 (UniProt Q14258), the log2 fold change is inactive: -0.011.
Still for that read-out and setting: the figure for TTC19 (UniProt Q6DKK2) is inactive: -0.006.
On the same count and under the same terms, the figure for TRIR (UniProt Q9BQ61) is inactive: 0.01; for TRMT11 (UniProt Q7Z4G4) it is inactive: -0.028.

Compound in the next test: CC1=C(C(CC(=O)N1)C2=CC=C(C=C2)C(F)(F)F)C(=O)NC3=C(C=C4C(=C3)C=NN4)F
The test is described as above. The method, boiled down: as §1
As to TTLL12 (UniProt Q14166), the log2 fold change is inactive: -0.026.
Still for that read-out and setting: the figure for TTC33 (UniProt Q6PID6) is inactive: 0.106; for TRMT1 (UniProt Q9NXH9) it is inactive: -0.005; for TRAPPC1 (UniProt Q9Y5R8) it is inactive: -0.018.
On to TRPC4AP (UniProt Q8TEL6), for which the log2 fold change is inactive: 0.018.
Same read-out and setting: the figure for TSC2 isoform 4 (UniProt P49815) is inactive: -0.026.
TSEN15 (UniProt Q8WW01): the log2 fold change is inactive: -0.062.
The same measure, in the same setting: the figure for TRUB1 (UniProt Q8WWH5) is inactive: 0.078; for TSG101 (UniProt Q99816) it is inactive: -0.015.
On the same count and under the same terms, then TTI1 (UniProt O43156), with inactive: 0.013.
For TTL (UniProt Q8NG68), the log2 fold change was inactive: 0.016.
The same measure, in the same setting: the figure for TRMT6 (UniProt Q9UJA5) is inactive: -0.01; for TTC5 (UniProt Q8N0Z6) it is inactive: -0.089; for TRIM33 isoform 2 (UniProt Q9UPN9) it is inactive: 0.01.
The same measure, in the same setting: then TRNAU1AP (UniProt Q9NX07), with inactive: -0.008.
The same measure, in the same setting: then TTI2 (UniProt Q6NXR4), with inactive: -0.009; and TRMT5 (UniProt Q32P41), with inactive: 0.037; and TRIT1 (UniProt Q9H3H1), with inactive: -0.012.
TRMT10A (UniProt Q8TBZ6): the log2 fold change was inactive: 0.009.
As to TRAP1 (UniProt Q12931), the log2 fold change was inactive: -0.014.
Still for that read-out and setting: then TSPAN14 (UniProt Q8NG11), with inactive: 0.042.
Same read-out and setting: then TRMT61A (UniProt Q96FX7), with inactive: 0.043; and TRMT61B (UniProt Q9BVS5), with inactive: -0.017; and TTMP isoform 3 (UniProt Q5BVD1), with inactive: -0.091.
The same measure, in the same setting: then TSR3 (UniProt Q9UJK0), with inactive: -0.012; and TRAPPC2L (UniProt Q9UL33), with inactive: 0.153.
Take TTC1 (UniProt Q99614): the log2 fold change was inactive: -0.009.
Regarding TRIM65 (UniProt Q6PJ69), the log2 fold change was inactive: 0.047.
Same read-out and setting: the figure for TRIM25 (UniProt Q14258) is inactive: -0.002; for TTC19 (UniProt Q6DKK2) it is inactive: 0.002; for TRIR (UniProt Q9BQ61) it is inactive: -0.024.
On the same count and under the same terms, the figure for TRMT11 (UniProt Q7Z4G4) is inactive: 0.001.

Compound in the next test: CC1=C(C2=C(C=C1)C(=O)C3=CC=CC=C3N2CCCN)C
Described as above. In a few lines: as §1
In the case of TTLL12 (UniProt Q14166), the log2 fold change is inactive: -0.032.
As for TTC33 (UniProt Q6PID6), the log2 fold change was inactive: -0.043.
The same measure, in the same setting: then TRMT1 (UniProt Q9NXH9), with inactive: -0.041.
Still for that read-out and setting: the figure for TRAPPC1 (UniProt Q9Y5R8) is inactive: 0.01; for TRPC4AP (UniProt Q8TEL6) it is inactive: -0.041; for TSC2 isoform 4 (UniProt P49815) it is inactive: -0.046.
Turning to TSEN15 (UniProt Q8WW01), the log2 fold change is inactive: 0.008.
On the same count and under the same terms, then TRUB1 (UniProt Q8WWH5), with inactive: -0.015; and TSG101 (UniProt Q99816), with inactive: 0.022.
As to TTI1 (UniProt O43156), the log2 fold change was inactive: 0.02.
Consider TTL (UniProt Q8NG68), for which the log2 fold change is inactive: -0.065.
The same measure, in the same setting: then TRMT6 (UniProt Q9UJA5), with inactive: -0.015; and TTC5 (UniProt Q8N0Z6), with inactive: -0.01.
Consider TRIM33 isoform 2 (UniProt Q9UPN9), for which the log2 fold change is inactive: 0.
Take TRNAU1AP (UniProt Q9NX07): the log2 fold change is inactive: 0.02.
Same read-out and setting: then TTI2 (UniProt Q6NXR4), with inactive: 0.018.
As for TRMT5 (UniProt Q32P41), the log2 fold change is inactive: 0.002.
The same measure, in the same setting: then TRIT1 (UniProt Q9H3H1), with inactive: -0.035; and TRMT10A (UniProt Q8TBZ6), with inactive: -0.031.
Same read-out and setting: the figure for TRAP1 (UniProt Q12931) is inactive: 0.035.
Regarding TSPAN14 (UniProt Q8NG11), the log2 fold change is inactive: -0.02.
On the same count and under the same terms, then TRMT61A (UniProt Q96FX7), with inactive: 0.03; and TRMT61B (UniProt Q9BVS5), with inactive: 0; and TTMP isoform 3 (UniProt Q5BVD1), with inactive: -0.02.
Same read-out and setting: the figure for TSR3 (UniProt Q9UJK0) is inactive: -0.039; for TRAPPC2L (UniProt Q9UL33) it is inactive: 0.033; for TTC1 (UniProt Q99614) it is inactive: -0.002.
On to TRIM65 (UniProt Q6PJ69), for which the log2 fold change is inactive: 0.006.
On the same count and under the same terms, then TRIM25 (UniProt Q14258), with inactive: -0.005.
On the same count and under the same terms, the figure for TTC19 (UniProt Q6DKK2) is inactive: 0.079; for TRIR (UniProt Q9BQ61) it is inactive: -0.024; for TRMT11 (UniProt Q7Z4G4) it is inactive: 0.037.

Values taken from the supplement of paper PMC10849652.
